Experimental findings from paper PMC7819943, “Rice protein-binding microarrays: a tool to detect cis-acting elements near promoter regions in rice” are described below.

Sequences of proteins named here, by UniProt entry; tags and fusion partners are left off.
UniProt Q0JBA9, entry or part of it: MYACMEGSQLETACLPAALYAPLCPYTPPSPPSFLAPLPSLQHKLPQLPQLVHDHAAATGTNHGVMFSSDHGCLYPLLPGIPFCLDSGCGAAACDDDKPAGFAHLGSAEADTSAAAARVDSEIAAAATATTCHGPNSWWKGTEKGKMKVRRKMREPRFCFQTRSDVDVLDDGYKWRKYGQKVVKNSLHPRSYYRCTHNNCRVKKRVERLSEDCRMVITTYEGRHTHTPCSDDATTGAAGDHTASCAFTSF

Some of the results follow.

In the assay the target is OsWRKY34 (Oryza sativa, UniProt Q0JBA9 1-250). Nature of the assay: protein-binding microarray (RPBM); PBS, 2% BSA, 51.3 ng/ul salmon testes DNA, 50 uM zinc acetate, 200 nM TF, 25 C, 1 h; high values mean tight binding. To be noted: protein: recombinant; tags: N-terminal polyhistidine and DsRed monomer fusion (pET32a); label: CyDye5-dUTP incorporated in the synthesized complementary strand; 3' TTTTT single-stranded linker to array surface; dsDNA, one strand shown. The essentials: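 Transcription factors were each fused at the N-terminus to a polyhistidine tag plus DsRed and expressed in E. coli BL21-CodonPlus before Ni–NTA purification. Binding to a double-stranded custom Agilent array was carried out with 200 nM protein at 25 °C for 1 h in PBS, 2% BSA, salmon testes DNA and 50 µM zinc acetate. The binding signal is per-feature fluorescence intensity, in arbitrary units, on an Axon 4000B scanner.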
As to “TATATATATATATATATATATATATAATTCTAATGTCATACGGAGTCACCTAGTGCAG”, the binding signal is 15500 fluorescence intensity (a.u.).

Turning to “ACATCACGCTATATCTGCTAATCTGCTCTGCTCTGACACACGGAGTCACCTAGTGCAG”, the binding signal is 10100 fluorescence intensity (a.u.).

For the sequence “ATGCCACGTAAGCGCCACATTTTTTAATTTTGTTTTTGTTCGGAGTCACCTAGTGCAG”, the binding signal is 10500 fluorescence intensity (a.u.).

For the sequence “CCGCTGTTATTCCCTTTGTTGTTTTTTCTCAAGTAAATTTCGGAGTCACCTAGTGCAG”, the binding signal was 13200 fluorescence intensity (a.u.).

As for “TGACGACGATCGTCGTCATGTACCCCGGCGCGATCTTGACCGGAGTCACCTAGTGCAG”, the binding signal is 8310 fluorescence intensity (a.u.).

“TGTCATCTGAAAGTTATACTTCCATCTTTCATCTGTTATTCGGAGTCACCTAGTGCAG”: the binding signal was 9030 fluorescence intensity (a.u.).

Take “CGTCACAAGAGTCGAGCCAGCACACGGCAGCAAAGTTTTTCGGAGTCACCTAGTGCAG”: the binding signal was 8730 fluorescence intensity (a.u.).

Turning to “CTATCTCTTCCCAATTTCCCATCGCTATTTCCAGTCCGAGCGGAGTCACCTAGTGCAG”, the binding signal was 8250 fluorescence intensity (a.u.).

As for “GACCTCATCTTTTCGTTTATGCTTATACTTATCAGTCAAACGGAGTCACCTAGTGCAG”, the binding signal was 10100 fluorescence intensity (a.u.).

Take “ACCTATTTGATCCTATTTGGTTTGTTGTTATAGTTGTGACCGGAGTCACCTAGTGCAG”: the binding signal is 10900 fluorescence intensity (a.u.).

“CTCTTATTTTTCTCACTTTAAATTTTTTTTTCCTTTTATTCGGAGTCACCTAGTGCAG”: the binding signal is 8340 fluorescence intensity (a.u.).

For the sequence “TGGCTATATACTACTCCGGATTTTGAGTTTTTCTTACAACCGGAGTCACCTAGTGCAG”, the binding signal is 9860 fluorescence intensity (a.u.).

As to “ACAAGCTGGTTGAATGGTGCTTATTTTGTGTGTATTTCTTCGGAGTCACCTAGTGCAG”, the binding signal was 10500 fluorescence intensity (a.u.).

Turning to “CTTGACTTGTTCTGTTACTCACAGCTAATTAAGCAATTTACGGAGTCACCTAGTGCAG”, the binding signal was 9080 fluorescence intensity (a.u.).

For the sequence “TCACGTGCACGCGCCCTCCCTCGTTGTCCCATTCTGGGCTCGGAGTCACCTAGTGCAG”, the binding signal is 8200 fluorescence intensity (a.u.).

For the sequence “TAACGGCTAATTTGGTTCGGGTTTTTGTGCTTGGTGGTGGCGGAGTCACCTAGTGCAG”, the binding signal is 8700 fluorescence intensity (a.u.).

On to “GTTTCTGCCTTTCTGGTATTTGGAGCAAAACTTTTTCTGCCGGAGTCACCTAGTGCAG”, for which the binding signal is 8240 fluorescence intensity (a.u.).

As to “ACTTCATCTTTGATTAGATGCTTCCTGAAGGTGCTGTTTCCGGAGTCACCTAGTGCAG”, the binding signal is 8610 fluorescence intensity (a.u.).

Regarding “AGCAAGGGTCACTTCTTTGTACTATCTTGACCTATCAAGCCGGAGTCACCTAGTGCAG”, the binding signal was 8140 fluorescence intensity (a.u.).

“TTCGAAATATTTGACACCGTTGACTTTTTAGCACATGTTTCGGAGTCACCTAGTGCAG”: the binding signal is 30000 fluorescence intensity (a.u.).

As for “CCAGCGAGCAGTGTTACTCTGTTTTTCATGAAAGTACTTTCGGAGTCACCTAGTGCAG”, the binding signal was 9010 fluorescence intensity (a.u.).

“CGTGGCACCTCACCAGCTCTCACCCTGCTATCTCCATCTCCGGAGTCACCTAGTGCAG”: the binding signal is 9380 fluorescence intensity (a.u.).

In the case of “AACTCAATTCCTGCGTTTCCGTGTCCAACGTTTCACCGTCCGGAGTCACCTAGTGCAG”, the binding signal was 8780 fluorescence intensity (a.u.).

For “TAATGTCCCTATTTTGTTATAGTGTTCCTCCAATAATCTGCGGAGTCACCTAGTGCAG”, the binding signal is 8290 fluorescence intensity (a.u.).

For the sequence “CTATTTTTTAACTGGTTCTCCACTATTATGTATGCAGTTTCGGAGTCACCTAGTGCAG”, the binding signal was 8120 fluorescence intensity (a.u.).

Turning to “CGTGTGCCACCCGCTTGCCCCTTCACCGCGCCACACGTACCGGAGTCACCTAGTGCAG”, the binding signal is 8440 fluorescence intensity (a.u.).

As for “ACTCCATTTGCTACATGCACTTGTCACGCCACTACTACTCCGGAGTCACCTAGTGCAG”, the binding signal is 12000 fluorescence intensity (a.u.).

Consider “ATCTATCTACTCCTGTTCTTTCGGAGCGACGTCCTCACCACGGAGTCACCTAGTGCAG”, for which the binding signal is 10500 fluorescence intensity (a.u.).

Take “ACTCGACTCGACTCGATTCCGCCCACTTGTATATCTCCCGCGGAGTCACCTAGTGCAG”: the binding signal is 8730 fluorescence intensity (a.u.).

In the case of “TTATATGGCCATATATCCCGTCCGTTCACAATATATCTCACGGAGTCACCTAGTGCAG”, the binding signal was 8510 fluorescence intensity (a.u.).

On to “GCCCGCTGCTCTGCTCTCTCATCTTTTATCTCACTAAAATCGGAGTCACCTAGTGCAG”, for which the binding signal was 8960 fluorescence intensity (a.u.).

In the case of “ACATACACACACCACCACCAACATAGCTTCTTTTGTCACTCGGAGTCACCTAGTGCAG”, the binding signal is 11000 fluorescence intensity (a.u.).

“TTCCTGTTCCTGCAAGAAAACGCTCATCCTCTTGCTTTTTCGGAGTCACCTAGTGCAG”: the binding signal was 9650 fluorescence intensity (a.u.).

For the sequence “ATATAATGTAAGTATGCCACTGTCTCGCGTCGTCACTGAGCGGAGTCACCTAGTGCAG”, the binding signal is 10200 fluorescence intensity (a.u.).

Consider “CCTTCGTGCTGCCTTCAGTTGGGTCTACTCCACTTGCCACCGGAGTCACCTAGTGCAG”, for which the binding signal is 8380 fluorescence intensity (a.u.).

“ACTTTAATTTTGGTCAGCTCCCGTACATGTAGTTAACTTGCGGAGTCACCTAGTGCAG”: the binding signal is 8770 fluorescence intensity (a.u.).

With “CTACTTTTGCAAAATGCTTCCTTTTTGCCTCAGTATCATTCGGAGTCACCTAGTGCAG”, the binding signal was 9030 fluorescence intensity (a.u.).

Take “AAATGGATTTTGTCCAGCCGCACAGCCTGACGGTATCACTCGGAGTCACCTAGTGCAG”: the binding signal is 8640 fluorescence intensity (a.u.).

In the case of “GTAAACTGATTTTTTCCCTTTTTCTAATTCGTTATTTTTTCGGAGTCACCTAGTGCAG”, the binding signal is 10000 fluorescence intensity (a.u.).

With “GGTCAAATATTTTTTAAAAAGTCAACGGCGTCAAATATTTCGGAGTCACCTAGTGCAG”, the binding signal was 11000 fluorescence intensity (a.u.).

As for “TCCTTTTCTTAGTTTTTTTACCCTGATTTGGTTACTTCACCGGAGTCACCTAGTGCAG”, the binding signal is 10700 fluorescence intensity (a.u.).

On to “TAGGGCATAACAGTATCACTTTTTTCGGTCACGTATAGCTCGGAGTCACCTAGTGCAG”, for which the binding signal was 8400 fluorescence intensity (a.u.).

In the case of “GTACTACTCCAAATCGTGTTCCACATTTCTATTTTGCACACGGAGTCACCTAGTGCAG”, the binding signal was 10200 fluorescence intensity (a.u.).

“ATTTTTGCATAACTACCATCCAATCACCATTTCTGAGGCACGGAGTCACCTAGTGCAG”: the binding signal is 8380 fluorescence intensity (a.u.).

As to “ACTCTATCTGCTTTTAAATGTATGGTGCTATATATATGATCGGAGTCACCTAGTGCAG”, the binding signal is 8940 fluorescence intensity (a.u.).

With “TGTTTGAAAACCCCAAGCCATCCACCATTGACCAATGCCACGGAGTCACCTAGTGCAG”, the binding signal is 8850 fluorescence intensity (a.u.).

For “CTATATCCTCTGTTCGTCACTGCCTTCCTCTCCAAGTCCACGGAGTCACCTAGTGCAG”, the binding signal is 8400 fluorescence intensity (a.u.).

As to “ATTGGCTGCTCATCTGCTGTACCCACATTTCATTTGGCCTCGGAGTCACCTAGTGCAG”, the binding signal is 8070 fluorescence intensity (a.u.).

With “AATTATTTTTCCTATCATTTGATTTATTGTTGAATATACTCGGAGTCACCTAGTGCAG”, the binding signal was 8330 fluorescence intensity (a.u.).

Turning to “CTGCTCGCTTGCTTGCGCTGTCCAGTTTAGCTCTGTCTAGCGGAGTCACCTAGTGCAG”, the binding signal was 8630 fluorescence intensity (a.u.).

“GAGGTACTTTGCACACTCTGTTCGCTGGTAAGCCGCGTTACGGAGTCACCTAGTGCAG”: the binding signal is 10000 fluorescence intensity (a.u.).

As to “TGCTTTCCTACTCCCTGTGGGTGCAGCCGTTTTCATGCTCCGGAGTCACCTAGTGCAG”, the binding signal was 8120 fluorescence intensity (a.u.).

For “CCAATATGGACTCTGGACTCGTCTTTGAATGTTTCTTATTCGGAGTCACCTAGTGCAG”, the binding signal is 8680 fluorescence intensity (a.u.).

For the sequence “AGATCGGGACCTAACATCCTCATCAGCCACTCCACCCGTTCGGAGTCACCTAGTGCAG”, the binding signal is 9030 fluorescence intensity (a.u.).
